Reference: publication PMC7224204
No constants are given. Whether binding was seen depends on the method and setting. Binding seen in cells or lysates may run through a third protein. Some results given as binding are weak or reduced against the parent protein; the word gives no strength. One block for each substance: values may come before it.

Amino acid sequences for entries named in this document (tags omitted). Residues count along the entry.
UniProt O75460, residues 19-977: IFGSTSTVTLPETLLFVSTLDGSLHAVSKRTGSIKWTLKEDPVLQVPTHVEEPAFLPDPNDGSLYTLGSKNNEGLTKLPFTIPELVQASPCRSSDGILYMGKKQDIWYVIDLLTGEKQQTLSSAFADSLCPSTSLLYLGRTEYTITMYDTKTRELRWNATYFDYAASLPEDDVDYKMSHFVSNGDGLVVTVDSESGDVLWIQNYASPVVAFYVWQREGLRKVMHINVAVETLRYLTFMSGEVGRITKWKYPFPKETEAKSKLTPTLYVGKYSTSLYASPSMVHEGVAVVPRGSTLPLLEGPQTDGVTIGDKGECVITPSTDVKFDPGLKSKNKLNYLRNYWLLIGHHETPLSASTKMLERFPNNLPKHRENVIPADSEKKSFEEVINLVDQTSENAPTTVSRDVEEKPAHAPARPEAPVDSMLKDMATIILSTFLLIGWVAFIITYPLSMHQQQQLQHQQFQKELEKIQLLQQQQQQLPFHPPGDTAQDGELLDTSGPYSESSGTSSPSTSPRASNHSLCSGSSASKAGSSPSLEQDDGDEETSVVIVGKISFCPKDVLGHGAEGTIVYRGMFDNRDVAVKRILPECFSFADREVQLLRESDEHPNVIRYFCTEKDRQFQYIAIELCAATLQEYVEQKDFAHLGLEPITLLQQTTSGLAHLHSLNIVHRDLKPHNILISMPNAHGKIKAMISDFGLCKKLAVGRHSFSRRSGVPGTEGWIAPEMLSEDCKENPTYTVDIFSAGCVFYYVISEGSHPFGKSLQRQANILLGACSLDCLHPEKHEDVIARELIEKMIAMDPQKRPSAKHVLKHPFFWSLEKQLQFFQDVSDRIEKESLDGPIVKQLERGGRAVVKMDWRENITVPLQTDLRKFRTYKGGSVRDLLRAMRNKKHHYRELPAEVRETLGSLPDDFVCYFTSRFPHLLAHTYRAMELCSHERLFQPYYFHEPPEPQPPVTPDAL
UniProt P00520: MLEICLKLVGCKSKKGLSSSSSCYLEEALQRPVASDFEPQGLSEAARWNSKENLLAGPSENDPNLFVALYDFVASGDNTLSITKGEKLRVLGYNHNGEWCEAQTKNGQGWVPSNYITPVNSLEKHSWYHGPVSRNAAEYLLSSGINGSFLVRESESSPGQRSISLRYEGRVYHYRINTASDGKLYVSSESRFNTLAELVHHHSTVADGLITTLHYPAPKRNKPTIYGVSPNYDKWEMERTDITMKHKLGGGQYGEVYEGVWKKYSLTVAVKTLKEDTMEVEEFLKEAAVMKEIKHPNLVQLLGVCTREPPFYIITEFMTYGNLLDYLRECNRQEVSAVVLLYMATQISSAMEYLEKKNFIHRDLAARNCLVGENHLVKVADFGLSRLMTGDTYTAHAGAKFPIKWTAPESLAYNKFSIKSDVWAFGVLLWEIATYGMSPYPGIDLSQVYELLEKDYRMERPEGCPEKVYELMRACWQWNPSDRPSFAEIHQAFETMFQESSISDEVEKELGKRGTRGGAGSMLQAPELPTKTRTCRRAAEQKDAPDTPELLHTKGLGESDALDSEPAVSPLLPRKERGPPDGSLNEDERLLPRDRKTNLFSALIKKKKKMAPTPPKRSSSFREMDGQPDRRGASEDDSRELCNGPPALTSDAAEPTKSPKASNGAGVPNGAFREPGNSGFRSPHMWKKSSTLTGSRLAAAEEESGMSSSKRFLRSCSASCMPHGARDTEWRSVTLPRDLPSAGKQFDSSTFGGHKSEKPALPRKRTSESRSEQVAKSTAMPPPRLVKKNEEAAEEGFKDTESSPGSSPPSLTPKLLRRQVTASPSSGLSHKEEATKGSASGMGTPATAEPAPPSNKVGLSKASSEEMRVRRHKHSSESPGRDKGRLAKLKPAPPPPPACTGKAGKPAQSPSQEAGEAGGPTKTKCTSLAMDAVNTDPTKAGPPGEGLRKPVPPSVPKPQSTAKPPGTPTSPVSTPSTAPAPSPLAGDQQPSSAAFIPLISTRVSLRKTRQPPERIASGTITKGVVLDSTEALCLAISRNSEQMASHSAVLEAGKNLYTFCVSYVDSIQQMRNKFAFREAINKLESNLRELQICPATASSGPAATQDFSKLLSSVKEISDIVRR
UniProt P00519: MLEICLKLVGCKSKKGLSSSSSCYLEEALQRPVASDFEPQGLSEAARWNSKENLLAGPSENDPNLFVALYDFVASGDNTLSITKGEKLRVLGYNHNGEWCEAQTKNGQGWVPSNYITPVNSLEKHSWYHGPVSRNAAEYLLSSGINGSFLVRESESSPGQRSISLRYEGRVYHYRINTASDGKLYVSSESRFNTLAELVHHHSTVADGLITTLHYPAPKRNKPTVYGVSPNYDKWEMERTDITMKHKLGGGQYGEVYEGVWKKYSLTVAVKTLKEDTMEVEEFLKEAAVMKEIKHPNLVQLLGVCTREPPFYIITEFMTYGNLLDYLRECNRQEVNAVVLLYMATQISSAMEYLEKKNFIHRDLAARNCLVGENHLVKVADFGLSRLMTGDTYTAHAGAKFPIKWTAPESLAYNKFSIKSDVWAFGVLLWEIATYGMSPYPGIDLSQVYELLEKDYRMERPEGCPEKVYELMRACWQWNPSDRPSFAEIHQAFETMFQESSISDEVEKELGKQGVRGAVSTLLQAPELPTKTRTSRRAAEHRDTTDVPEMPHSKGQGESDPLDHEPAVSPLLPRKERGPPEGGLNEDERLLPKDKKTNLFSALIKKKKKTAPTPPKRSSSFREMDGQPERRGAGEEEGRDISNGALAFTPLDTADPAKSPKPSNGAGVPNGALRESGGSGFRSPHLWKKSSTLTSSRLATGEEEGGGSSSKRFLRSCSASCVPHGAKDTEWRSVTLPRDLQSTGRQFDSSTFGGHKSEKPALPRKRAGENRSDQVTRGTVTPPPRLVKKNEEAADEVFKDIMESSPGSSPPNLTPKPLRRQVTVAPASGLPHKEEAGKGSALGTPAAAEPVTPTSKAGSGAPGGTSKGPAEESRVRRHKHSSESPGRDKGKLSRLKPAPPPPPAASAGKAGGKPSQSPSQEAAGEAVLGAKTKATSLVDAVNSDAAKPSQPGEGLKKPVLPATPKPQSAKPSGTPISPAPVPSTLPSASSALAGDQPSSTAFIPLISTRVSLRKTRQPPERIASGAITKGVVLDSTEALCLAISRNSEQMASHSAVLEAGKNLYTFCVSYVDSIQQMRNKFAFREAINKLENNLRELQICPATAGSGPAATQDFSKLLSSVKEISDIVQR
UniProt P20029, residues 20-655: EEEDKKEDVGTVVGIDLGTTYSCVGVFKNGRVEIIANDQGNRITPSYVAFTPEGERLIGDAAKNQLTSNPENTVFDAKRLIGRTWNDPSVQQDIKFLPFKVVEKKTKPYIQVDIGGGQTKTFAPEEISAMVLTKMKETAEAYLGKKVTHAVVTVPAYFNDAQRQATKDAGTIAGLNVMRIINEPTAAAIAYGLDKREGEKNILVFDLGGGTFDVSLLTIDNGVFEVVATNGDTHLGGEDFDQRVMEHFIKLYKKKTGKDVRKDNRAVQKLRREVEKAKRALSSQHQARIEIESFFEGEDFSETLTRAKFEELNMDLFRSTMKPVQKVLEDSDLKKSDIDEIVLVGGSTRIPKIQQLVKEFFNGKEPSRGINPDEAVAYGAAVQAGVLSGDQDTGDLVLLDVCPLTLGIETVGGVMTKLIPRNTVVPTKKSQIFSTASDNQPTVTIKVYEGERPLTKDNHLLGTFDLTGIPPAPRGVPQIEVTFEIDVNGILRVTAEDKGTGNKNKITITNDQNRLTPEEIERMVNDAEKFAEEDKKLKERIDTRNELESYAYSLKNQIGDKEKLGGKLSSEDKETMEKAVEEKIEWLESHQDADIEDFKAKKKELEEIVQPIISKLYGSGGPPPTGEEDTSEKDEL

What was measured:
[1] = biological target: IRE1α-HA (inositol requiring enzyme 1 alpha, HA-tagged), stably reconstituted in IRE1α-deficient MEF cells (UniProt O75460); assay: proximity ligation; IRE1α KO MEF reconstituted with IRE1α-HA (Mock as control), basal or 10 μM etoposide 8 h; fixed cells, anti-HA and anti-c-Abl antibodies, Duolink, confocal microscopy
[2] = biological target: IRE1α-HA (inositol requiring enzyme 1 alpha, HA-tagged), expressed in HEK-293T cells (UniProt O75460); assay: co-IP; HEK-293T cells overexpressing IRE1α-HA and c-Abl-GFP, with or without 10 μM etoposide; IP by the HA epitope (IRE1α) and by GFP (c-Abl); lysis buffer 0.5% NP-40, 50 mM NaCl, 50 mM Tris pH 7.6; anti-HA agarose 4 h at 4 °C, last wash with 350 mM NaCl; western blot
[3] = biological target: IRE1α-HA (inositol requiring enzyme 1 alpha, HA-tagged), stably reconstituted in IRE1α-deficient MEF cells (UniProt O75460); assay: co-IP; IP of HA-tagged IRE1α with anti-HA agarose, blot for BiP; cells untreated, with etoposide or with ER stress (tunicamycin); lysis buffer 0.5% NP-40, 50 mM NaCl, 50 mM Tris pH 7.6, last wash with 350 mM NaCl

binding [1]: binds
Substance: endogenous c-Abl (MEF cells) (from UniProt P00520 1-1123)

binding [2]: binds
Substance: c-Abl-GFP (from UniProt P00519 1-1130)

binding [3]: binds
Substance: BiP (ER chaperone) (from UniProt P20029 20-655)
